Some of the results follow. Repeats in this data set agree poorly, so a single value says little.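 U2OS cells carrying ACE2 were mixed with U2OS cells carrying full-length spike, and fusion was scored by imaging as the share of nuclei showing both cell types' fluorescent markers. A compound counts as an inhibitory hit when it is non-toxic and its fusion z-score falls below -3, meaning more than three standard deviations below the plate's DMSO wells.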
Test system: U2OS ACE2 x SARS-CoV-2 spike co-culture
Experiment: cell-cell fusion (fraction fused) z-score vs plate DMSO control; higher = more fusion
Conditions: 30 µM; 5 h; toxicity class: non-toxic, passed QC

Compound	cell-cell fusion (z-score)
C[C@]12CCC3c4ccc(O)cc4CCC3C1CCC2=O (stereo partly drawn)	inactive: 0.444
O=c1[nH]cnc2c1ncn2[C@@H]1O[C@H](CO)[C@@H](O)[C@H]1O [Inosine]	inactive: 3.42
O=c1c(O)c(-c2ccccc2)oc2cc(O)ccc12	inactive: 1.04
COc1ccc2c(c1)O[C@@H]1COc3cc(OC)c(OC)cc3[C@@H]1C2=O	inactive: 2.65
CC(C)OC(=O)[C@H](C)N[P@](=O)(OC[C@H]1O[C@@H](n2ccc(=O)[nH]c2=O)[C@](C)(F)[C@@H]1O)Oc1ccccc1 [Sofosbuvir]	inactive: 2.44
CCCCC[C@H](O)/C=C/[C@@H]1[C@@H](C/C=C\CCCC(=O)O)[C@@H](O)C[C@H]1O.NC(CO)(CO)CO [Dinoprost Tromethamine]	inactive: 0.927
COc1c(-c2ccc3cc(NS(C)(=O)=O)ccc3c2)cc(-n2ccc(=O)[nH]c2=O)cc1C(C)(C)C [Dasabuvir]	inactive: -1.38
O=C(O)CN(CCOCCOCCN(CC(=O)O)CC(=O)O)CC(=O)O	inactive: 3.64
Cl.c1ccc([C@H]2CN3CCSC3=N2)cc1	inactive: 2.13
Cl.c1ccc([C@H]2CN3CCSC3=N2)cc1 [(-)-Tetramisole hydrochloride]	inactive: 3.17
COC(=O)c1c(C)cc(O)cc1O	inactive: 1.91
NC(=O)c1cc[n+](CC2=C(C(=O)[O-])N3C(=O)[C@@H](NC(=O)[C@@H](c4ccccc4)S(=O)(=O)[O-])[C@H]3SC2)cc1.[Na+] [Cefsulodin sodium salt hydrate]	inactive: 0.605
CN1CCc2c(c3ccccc3n2Cc2ccccc2)C1	inactive: -0.252
Clc1ccc(CO/N=C(\Cn2ccnc2)c2ccc(Cl)cc2Cl)c(Cl)c1.O=[N+]([O-])O [Oxiconazole nitrate]	active: -7.37
CC(C)(/N=N/C(C)(C)C(=N)N)C(=N)N.Cl.Cl	inactive: 1.5
O=c1cc(O)cc(/C=C/c2ccc(O)c(O)c2)o1 [Hispidin]	inactive: 4.29
CCN1CCN(c2cc3c(cc2F)c(=O)c(C(=O)O)cn3C2CC2)CC1	inactive: 4.35
CCC(CCC(C)[C@H]1CCC2C3CC=C4C[C@@H](OC(C)=O)CC[C@]4(C)C3CC[C@@]21C)C(C)C (stereo partly drawn)	inactive: 2.44
C[N+](C)([O-])CCNc1ccc(NCC[N+](C)(C)[O-])c2c1C(=O)c1c(O)ccc(O)c1C2=O.Cl.Cl [Banoxantrone dihydrochloride]	inactive: 2.23
CCCc1nc2c(C)cc(-c3nc4ccccc4n3C)cc2n1Cc1ccc(-c2ccccc2C(=O)O)cc1	inactive: 4.13
Nc1cc(C(F)(F)F)c(-c2cc(N3CCOCC3)nc(N3CCOCC3)n2)cn1	inactive: 1.76
CCCCOC(=O)c1ccc(N)cc1	inactive: 0.527
CCCN1CCC[C@@H]2Cc3nc(N)ncc3C[C@H]21.Cl.Cl [Quinelorane dihydrochloride]	inactive: 0.0655
COc1ccc2c(c1OC)C(=O)O[C@@H]2[C@H]1c2cc3c(cc2CCN1C)OCO3	inactive: 3.14
CC1=Nc2ccc(Cl)cc2S(=O)(=O)N1	inactive: 6.05

Compound	cell-cell fusion (z-score)
CC(C)NC[C@H](O)COc1cccc2ccccc12.Cl [(S)-Propranolol hydrochloride]	inactive: 1.28
Cc1c(NC(C)C)c(=O)n(-c2ccccc2)n1C.Cl	inactive: 1.54
NC(N)=Nc1nc(CSCC/C(N)=N\S(N)(=O)=O)cs1 [Famotidine]	inactive: 2.86
CCCCNC(=O)NS(=O)(=O)c1ccc(C)cc1 [Tolbutamide]	inactive: 1.64
CCCCNC(=O)NS(=O)(=O)c1ccc(C)cc1	inactive: 4.01
COc1ccc(-c2cc(=O)c3c(O)cc(OC)cc3o2)cc1	inactive: -0.214
CC(=O)c1ccc(S(=O)(=O)NC(=O)NC2CCCCC2)cc1	inactive: -0.295
CC(=O)c1ccc(S(=O)(=O)NC(=O)NC2CCCCC2)cc1 [Acetohexamide]	inactive: 2.33
CCC[C@@H]1C[C@@H](C(=O)N[C@@H]([C@H]2O[C@H](SC)[C@H](OP(=O)(O)O)[C@@H](O)[C@H]2O)[C@H](C)Cl)N(C)C1 [Clindamycin phosphate]	inactive: 3.3
CCCCCCCc1ccc(CCc2cccc(O)c2C(=O)O)cc1	inactive: 1.92
Cl.c1ccc2c(c1)CCC[C@H]2Nc1nc2ccccc2[nH]1 [NS8593 hydrochloride]	inactive: -2.17
CN1CCN(C2=Nc3cc(Cl)ccc3Nc3ccccc32)CC1 [Clozapine]	inactive: 2.09
CN1CCN(C2=Nc3cc(Cl)ccc3Nc3ccccc32)CC1	inactive: 2.3
C=C(C)[C@@H]1[C@H]2OC(=O)[C@@H]1[C@]1(O)C[C@H]3O[C@]34C(=O)O[C@H]2[C@]14C	inactive: 0.297
COc1ccc(-c2cc(=O)c3c(OC)c(OC)c(OC)c(OC)c3o2)cc1OC	inactive: 1.8
C[C@]12CCC(=O)C=C1CC[C@@H]1[C@@H]2[C@@H](O)C[C@@]2(C)[C@H]1CC[C@]2(O)C(=O)CO [Hydrocortisone]	inactive: 1.67
O=C1N(c2ccccc2)c2ccccc2C1(Cc1ccncc1)Cc1ccncc1 [Linopirdine]	inactive: 3.28
CN1CC(=O)N2[C@H](c3ccc4c(c3)OCO4)c3[nH]c4ccccc4c3C[C@@H]2C1=O	inactive: 3.15
CN1[C@@H]2CC[C@H]1C[C@@H](OC(c1ccccc1)c1ccccc1)C2.CS(=O)(=O)O [Benztropine mesylate]	inactive: 4.23
CCCNC(=O)NS(=O)(=O)c1ccc(Cl)cc1 [Chlorpropamide]	inactive: 1.02
CCCNC(=O)NS(=O)(=O)c1ccc(Cl)cc1	inactive: 1.44
COC(=O)[C@@]1(C)CCC[C@]2(C)c3ccc(O)c(C(C)C)c3CCC12 (stereo partly drawn)	inactive: 2.4
CO/N=C(/C(=O)NC1C(=O)N2C(C(=O)[O-])=C(COC(N)=O)CSC12)c1ccco1.[Na+] (stereo not drawn)	inactive: 2.63
Cc1nc2c(OCc3ccccc3)cccn2c1CC#N	inactive: 0.00565
CN(C)Cc1c(C(=O)NCCOc2ccc(C(=O)NO)cc2)oc2ccccc12	inactive: 2.15

Compound	cell-cell fusion (z-score)
Nc1ncnc2c1ncn2[C@@H]1O[C@H](CO)[C@@H](O)[C@@H]1O	inactive: 1.4
N[C@@H](Cc1ccc(N(CCCl)CCCl)cc1)C(=O)O	inactive: 0.471
COC(=O)N[C@H](C(=O)N1CCC[C@H]1c1ncc(-c2ccc3c(c2)O[C@@H](c2ccccc2)n2c-3cc3cc(-c4cnc([C@@H]5CCCN5C(=O)[C@@H](NC(=O)OC)C(C)C)[nH]4)ccc32)[nH]1)C(C)C [Elbasvir]	inactive: 2.2
c1ccc(-c2nn3c(c2-c2ccnc4cc(OCCN5CCOCC5)ccc24)CCC3)nc1	inactive: 0.447
O=C(C1CCCCC1)N1CC(=O)N2CCc3ccccc3C2C1 (stereo not drawn)	inactive: 0.62
CC(COc1ccccc1)N(CCCl)Cc1ccccc1.Cl (stereo not drawn) [Phenoxybenzamine hydrochloride]	inactive: -0.506
C[C@@H]1O[C@@H]1P(=O)(O)O.NC(CO)(CO)CO [Fosfomycin Tromethamine]	inactive: 3.04
O=C([O-])CS.[Na+]	inactive: 2.29
COC(=O)C[C@H]1C2(C)CC34OC5(C)O[C@@]6([C@H](OC(C)=O)C(OC(C)=O)[C@]7(C)C(/C(=C(/O)C(C)C)C(=O)O[C@H]7c7ccoc7)[C@@]6(O5)[C@H](OC(C)=O)[C@@]3(O)C2OC(=O)C(C)C)[C@]14C (stereo partly drawn)	inactive: 3.04
COc1ccc(CC2c3cc(OC)c(OC)cc3CC[N+]2(C)CCC(=O)OCCCCCOC(=O)CC[N+]2(C)CCc3cc(OC)c(OC)cc3C2Cc2ccc(OC)c(OC)c2)cc1OC.O=S(=O)([O-])c1ccccc1.O=S(=O)([O-])c1ccccc1 (stereo not drawn)	inactive: 1.03
CCC1(C)CC(=O)NC1=O (stereo not drawn)	inactive: 1.84
CCC1(C)CC(=O)NC1=O (stereo not drawn) [Ethosuximide]	inactive: 2.6
COC1=C(CC=C(C)C)C(=O)c2ccccc2C1=O	active: -3.39
NC1CONC1=O (racemic) [DL-Cycloserine]	inactive: 1.91
C[C@@H]1C(=O)N=C2Nc3cccc(Cl)c3CN21 [Quazinone]	inactive: 2.15
O=C(O)[C@H]1/C(=C/CO)O[C@@H]2CC(=O)N21.[Li]	inactive: 4.47
O=C(NCc1cccc(O)c1)Nc1nc(-c2ccncc2)cs1	inactive: 1.02
Cc1nnc(C(=O)NC(C)(C)c2nc(C(=O)NCc3ccc(F)cc3)c(O)c(=O)n2C)o1 [Raltegravir]	inactive: 1.96
Clc1ccc(COC(Cn2ccnc2)c2ccc(Cl)cc2Cl)cc1.O=[N+]([O-])O (stereo not drawn)	inactive: 2.04
O=C(Nc1ccccc1C(=O)NC1CCCCNC1=O)c1cc2ccccc2s1 (stereo not drawn)	inactive: 1.04
Oc1ccccc1O [Pyrocatechol]	inactive: -0.169
CC(C(=O)O)c1ccc2c(c1)Cc1cccnc1O2 (stereo not drawn)	inactive: 3.11
CCC(NC(C)C)C(O)c1ccc(O)c(O)c1.CS(=O)(=O)O (stereo not drawn) [Isotharine mesylate]	inactive: 1.07

Quoted from the listing.
cell-cell fusion (z-score) with O=C([O-])CS.[Na+] reads inactive: 2.29
cell-cell fusion (z-score) with O=C(Nc1ccccc1C(=O)NC1CCCCNC1=O)c1cc2ccccc2s1 (stereo not drawn) reads inactive: 1.04
cell-cell fusion (z-score) with CCC(NC(C)C)C(O)c1ccc(O)c(O)c1.CS(=O)(=O)O (stereo not drawn) [Isotharine mesylate] reads inactive: 1.07
cell-cell fusion (z-score) with C[C@@H]1C(=O)N=C2Nc3cccc(Cl)c3CN21 [Quazinone] reads inactive: 2.15
cell-cell fusion (z-score) with O=C(NCc1cccc(O)c1)Nc1nc(-c2ccncc2)cs1 reads inactive: 1.02

Source: the supplement of paper PMC8104966
